Article PMC8134040

Amino acid sequences for entries named in this document (tags omitted). Residues count along the entry.
UniProt P29317, residues 24-976: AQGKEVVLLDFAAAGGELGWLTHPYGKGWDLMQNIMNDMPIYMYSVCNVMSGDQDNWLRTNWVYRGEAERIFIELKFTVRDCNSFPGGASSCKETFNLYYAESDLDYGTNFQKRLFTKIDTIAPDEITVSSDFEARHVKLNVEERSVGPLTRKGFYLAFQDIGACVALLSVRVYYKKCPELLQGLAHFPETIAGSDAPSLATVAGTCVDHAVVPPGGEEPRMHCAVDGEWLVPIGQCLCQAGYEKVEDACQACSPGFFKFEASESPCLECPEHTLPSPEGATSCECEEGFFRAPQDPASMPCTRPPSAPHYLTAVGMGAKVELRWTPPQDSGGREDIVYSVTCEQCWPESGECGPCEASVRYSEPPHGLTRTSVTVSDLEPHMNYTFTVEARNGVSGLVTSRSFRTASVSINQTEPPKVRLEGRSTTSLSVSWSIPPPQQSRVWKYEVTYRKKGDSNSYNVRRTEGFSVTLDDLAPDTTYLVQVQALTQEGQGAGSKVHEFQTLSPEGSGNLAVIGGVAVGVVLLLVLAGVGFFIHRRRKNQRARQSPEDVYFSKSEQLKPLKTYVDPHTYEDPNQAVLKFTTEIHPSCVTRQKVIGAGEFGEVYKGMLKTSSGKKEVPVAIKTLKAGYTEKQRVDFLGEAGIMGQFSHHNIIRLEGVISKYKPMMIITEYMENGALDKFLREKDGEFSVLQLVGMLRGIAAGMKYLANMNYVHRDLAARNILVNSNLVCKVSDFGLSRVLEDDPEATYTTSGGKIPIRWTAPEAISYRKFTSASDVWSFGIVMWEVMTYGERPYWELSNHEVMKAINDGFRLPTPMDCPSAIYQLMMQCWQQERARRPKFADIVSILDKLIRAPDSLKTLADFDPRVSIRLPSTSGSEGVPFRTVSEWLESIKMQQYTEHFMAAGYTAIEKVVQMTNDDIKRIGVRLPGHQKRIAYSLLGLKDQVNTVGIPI
UniProt P07947: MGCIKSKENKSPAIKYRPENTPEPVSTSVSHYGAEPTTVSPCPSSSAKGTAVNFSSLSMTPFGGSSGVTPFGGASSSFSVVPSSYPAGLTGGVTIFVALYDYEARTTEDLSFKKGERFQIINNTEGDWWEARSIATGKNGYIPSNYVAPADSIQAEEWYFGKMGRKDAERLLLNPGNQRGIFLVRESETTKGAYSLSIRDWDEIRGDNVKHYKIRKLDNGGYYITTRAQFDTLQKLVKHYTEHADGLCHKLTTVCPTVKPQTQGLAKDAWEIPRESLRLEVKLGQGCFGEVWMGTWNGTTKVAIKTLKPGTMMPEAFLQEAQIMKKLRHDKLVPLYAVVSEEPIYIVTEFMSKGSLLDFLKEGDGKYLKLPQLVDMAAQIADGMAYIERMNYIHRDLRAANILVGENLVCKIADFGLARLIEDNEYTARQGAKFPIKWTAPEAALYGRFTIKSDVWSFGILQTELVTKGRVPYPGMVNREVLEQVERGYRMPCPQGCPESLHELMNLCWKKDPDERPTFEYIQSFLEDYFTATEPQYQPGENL

Target: HA-EphA2 (erythropoietin-producing hepatocellular receptor A2) (UniProt P29317)
Test: affinity purification with mass spectrometry; AGS cells transfected with control or HA-EphA2 plasmid for 48 h; IP with anti-HA antibody; the HA-EphA2-IP protein complex subjected to proteomic analysis

binding: binds
Substance: endogenous YES1 (YES Proto-Oncogene 1) (from UniProt P07947 1-543) (enzyme)

No constants are given. Whether binding was seen depends on the method and setting. In cells and extracts the contact can be indirect. These calls come from enrichment with a bait or labelling near it, and not all partners need be listed.
